Measured values reported in publication PMC8211909.
Results are given in words; binding and its absence hold for the method and conditions named. Binding seen in cells or lysates may run through a third protein. Some results given as binding are weak or reduced against the parent protein; the word gives no strength.

Assays:
[1] = target: T1, WWOX (endogenous, phosphorylation state not told) (mouse (endogenous in mouse organs)) (UniProt Q91WL8); assay: co-IP; endogenous proteins of mouse liver (lipid raft; 3-month-old wild type and Wwox heterozygous mice; BALB/c mice given Zfra4-10 and/or WWOX7-21 peptide and 4T1 cells), specific WWOX antibodies
T1 sequence: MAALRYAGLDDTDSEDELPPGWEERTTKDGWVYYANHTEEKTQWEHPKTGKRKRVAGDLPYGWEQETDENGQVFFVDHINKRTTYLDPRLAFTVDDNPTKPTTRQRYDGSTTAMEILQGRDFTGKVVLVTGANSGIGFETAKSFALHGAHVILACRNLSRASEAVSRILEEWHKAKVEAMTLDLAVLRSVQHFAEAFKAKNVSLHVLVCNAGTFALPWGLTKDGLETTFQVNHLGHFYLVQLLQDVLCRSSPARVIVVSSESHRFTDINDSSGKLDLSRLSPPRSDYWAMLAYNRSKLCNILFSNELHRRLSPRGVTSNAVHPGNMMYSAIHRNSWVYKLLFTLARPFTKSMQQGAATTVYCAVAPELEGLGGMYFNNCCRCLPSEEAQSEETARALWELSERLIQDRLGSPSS

[2] = target: T1, WWOX (endogenous, phosphorylation state not told) (mouse (endogenous in mouse organs)); assay: co-IP; endogenous proteins of spleen of BALB/c mice given Zfra4-10 and/or WWOX7-21 or WWOX7-11 peptide and 4T1 cells
[3] = target: T2, pY287-WWOX (mouse (endogenous in mouse liver)) (UniProt Q91WL8); assay: co-IP; endogenous proteins of mouse liver (lipid raft; 3-month-old wild type and Wwox heterozygous mice; BALB/c mice given Zfra4-10 and/or WWOX7-21 peptide and 4T1 cells), specific WWOX antibodies
T2 sequence (chain, phosphotyrosine at 287): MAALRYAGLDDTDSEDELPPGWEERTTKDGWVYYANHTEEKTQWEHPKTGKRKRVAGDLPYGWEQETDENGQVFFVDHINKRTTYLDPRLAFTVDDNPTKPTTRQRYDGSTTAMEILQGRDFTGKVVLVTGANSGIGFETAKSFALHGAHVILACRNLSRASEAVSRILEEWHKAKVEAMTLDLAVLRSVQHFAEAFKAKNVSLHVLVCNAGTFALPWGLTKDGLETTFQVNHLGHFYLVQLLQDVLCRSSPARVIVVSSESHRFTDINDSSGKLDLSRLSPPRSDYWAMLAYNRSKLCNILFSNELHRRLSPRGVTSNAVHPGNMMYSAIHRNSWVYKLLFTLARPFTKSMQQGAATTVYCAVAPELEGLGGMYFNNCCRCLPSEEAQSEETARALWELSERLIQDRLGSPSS

[4] = target: T3, Flotillin-2 (mouse (endogenous in mouse liver and spleen)) (UniProt Q60634); assay: as above
T3 sequence: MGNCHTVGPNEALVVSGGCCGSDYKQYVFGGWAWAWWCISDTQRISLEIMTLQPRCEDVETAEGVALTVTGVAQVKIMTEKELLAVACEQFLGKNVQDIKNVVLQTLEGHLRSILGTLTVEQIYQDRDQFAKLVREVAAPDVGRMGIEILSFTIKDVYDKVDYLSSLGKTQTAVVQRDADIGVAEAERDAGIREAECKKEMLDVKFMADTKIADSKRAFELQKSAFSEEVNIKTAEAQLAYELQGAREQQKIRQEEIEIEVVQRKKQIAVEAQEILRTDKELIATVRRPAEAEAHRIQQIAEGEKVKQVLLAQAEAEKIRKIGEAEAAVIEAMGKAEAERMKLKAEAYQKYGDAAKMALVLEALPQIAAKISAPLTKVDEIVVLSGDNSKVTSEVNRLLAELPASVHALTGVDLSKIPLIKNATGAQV

[5] = target: T3, Flotillin-2 (mouse (endogenous in mouse liver and spleen)); assay: co-IP; endogenous proteins of spleen of BALB/c mice given Zfra4-10 and/or WWOX7-21 or WWOX7-11 peptide and 4T1 cells
[6] = target: T4, pY33-WWOX (mouse (endogenous in mouse liver and spleen)) (UniProt Q91WL8); assay: as above
T4 sequence (chain, phosphotyrosine at 33): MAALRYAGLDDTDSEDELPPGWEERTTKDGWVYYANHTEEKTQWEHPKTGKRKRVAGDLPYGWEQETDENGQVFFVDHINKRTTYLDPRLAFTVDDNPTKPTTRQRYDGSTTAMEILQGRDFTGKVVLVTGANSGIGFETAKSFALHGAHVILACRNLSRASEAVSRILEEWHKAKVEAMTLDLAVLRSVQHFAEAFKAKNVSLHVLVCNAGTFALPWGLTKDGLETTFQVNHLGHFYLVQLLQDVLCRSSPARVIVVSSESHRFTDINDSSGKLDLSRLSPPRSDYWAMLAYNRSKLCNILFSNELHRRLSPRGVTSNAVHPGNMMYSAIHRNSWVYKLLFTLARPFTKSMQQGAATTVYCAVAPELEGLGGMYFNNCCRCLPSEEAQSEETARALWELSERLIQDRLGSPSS

Measured: binding

B1: Flotillin-2 (protein, UniProt Q60634 1-428)
chain: MGNCHTVGPNEALVVSGGCCGSDYKQYVFGGWAWAWWCISDTQRISLEIMTLQPRCEDVETAEGVALTVTGVAQVKIMTEKELLAVACEQFLGKNVQDIKNVVLQTLEGHLRSILGTLTVEQIYQDRDQFAKLVREVAAPDVGRMGIEILSFTIKDVYDKVDYLSSLGKTQTAVVQRDADIGVAEAERDAGIREAECKKEMLDVKFMADTKIADSKRAFELQKSAFSEEVNIKTAEAQLAYELQGAREQQKIRQEEIEIEVVQRKKQIAVEAQEILRTDKELIATVRRPAEAEAHRIQQIAEGEKVKQVLLAQAEAEKIRKIGEAEAAVIEAMGKAEAERMKLKAEAYQKYGDAAKMALVLEALPQIAAKISAPLTKVDEIVVLSGDNSKVTSEVNRLLAELPASVHALTGVDLSKIPLIKNATGAQV
binds: [1] | [2]

B2: Hyal-2 (protein, UniProt O35632 21-448)
chain: GELKPTAPPIFTGRPFVVAWNVPTQECAPRHKVPLDLRAFDVKATPNEGFFNQNITTFYYDRLGLYPRFDAAGTSVHGGVPQNGSLCAHLPMLKESVERYIQTQEPGGLAVIDWEEWRPVWVRNWQEKDVYRQSSRQLVASRHPDWPSDRVMKQAQYEFEFAARQFMLNTLRYVKAVRPQHLWGFYLFPDCYNHDYVQNWESYTGRCPDVEVARNDQLAWLWAESTALFPSVYLDETLASSVHSRNFVSFRVREALRVAHTHHANHALPVYVFTRPTYTRGLTGLSQVDLISTIGESAALGSAGVIFWGDSEDASSMETCQYLKNYLTQLLVPYIVNVSWATQYCSWTQCHGHGRCVRRNPSANTFLHLNASSFRLVPGHTPSEPQLRPEGQLSEADLNYLQKHFRCQCYLGWGGEQCQRNYKGAAGN
binds: [3] | [4] | [5] | [6]
